The whole screen tested about 360,000 compounds, of which about 7,500 (2.1%) were called active. Inconclusive means that the source gave no clear call. Such entries were picked first, then a sample of the others. Calls follow the shape of the dose curve; as a rule, active = well fitted inhibition curve with a large enough effect; inconclusive = small, poorly fitted or top-dose-only effect, or effect the other way; inactive = flat fitted curve, though single readings scatter. Where the call is inconclusive, the potency comes from a doubtful curve fit.
Assay: Nrf2 qHTS screen for inhibitors; also: nearly all actives have a fitted effect of over 60% in size
Conditions: A549 ARE-Fluc reporter, luciferase luminescence, 18-24 h; activity change, negative = inhibition: at 46 µM (top of the series)
How it was run: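 Concentration-response testing used A549 ARE_Fluc cells at 5000 cells/well. Following an 18-24 h compound incubation, viability was read by fluorescence (Ex 405/Em 525) and luciferase output by luminescence.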
% is scaled to controls: 0 for no effect and ±100 for the full control effect; potency is read from the fitted curve at half-maximal effect.

SMILES	Potency	activity change, negative = inhibition
CC(C)c1c(CN(C)C(C)Cc2ccccc2)n(C)n(-c2ccccc2)c1=O (centres undefined)	inconclusive: 32.6 µM [falling, single point]	–
CCCCn1c(=O)c(C(=O)Nc2ccccc2C)c(O)c2ccccc21	–	inactive: 6.12%
CCOc1ccc(-c2cc(C)[n+](CCc3ccc(OC)c(OC)c3)c(-c3ccc(OCC)cc3)c2)cc1	inconclusive: 29.1 µM [falling, single point]	–
CC(=NCc1cccnc1)c1c(O)n(-c2ccc(C)cc2)c(=O)[nH]c1=O	inconclusive: 0.0058 µM [falling, full curve, poor fit]	–
CC1C(OC(=O)CCC(=O)NC(C)(C)CO)O[C@H]2OC3(C)CC[C@H]4[C@H](C)CCC1C24OO3 (some centres undefined)	inconclusive: 6.51 µM [falling, full curve, poor fit]	–
Nc1ccccc1C(=O)OCC(=O)c1ccc2c(c1)OCCO2	inconclusive: 9.2 µM [activator, partial curve, poor fit]	–
CCCCCCOC(=O)c1ccccc1N	–	inactive: 10.9%
CCn1cc(CN(C)S(=O)(=O)c2ccc3ccccc3c2)c(C)n1	inconclusive: 9.2 µM [falling, partial curve]	–
CC(C)(C)c1cc([N+](=O)[O-])cc(C(C)(C)C)c1O	active: 18.4 µM	–
Cc1ccccc1-c1nc(CS(=O)CC(=O)N2CCN(c3cc(Cl)ccc3C)CC2)c(C)o1 (centres undefined)	inconclusive: 29.1 µM [falling, single point]	–
CC12CN3CC(C)(CN(C1)P3(=O)Oc1ccccc1)C2=O (centres undefined)	–	inactive: 4.61%
CN1OC[C@@H]2COc3ccc4ccccc4c3[C@@H]21	inconclusive: 14.6 µM [activator, partial curve]	–
COc1cccc(OCc2cc(C(=O)N3C[C@H]4C[C@@H](C3)c3cccc(=O)n3C4)no2)c1	inconclusive: 11.6 µM [activator, partial curve]	–
O=c1cccc2n1CC1CC2CN(Cc2c(Cl)cccc2Cl)C1 (centres undefined)	inconclusive: 20.6 µM [falling, single point]	–
CC1=CC(=C2C(=O)NC(=O)NC2=O)C=C(C(F)(F)F)N1Cc1ccccc1	–	inactive: -2.5%
CCCNC(=O)N1[C@H]2CC[C@@H]1C(C(=O)OC)=C(c1ccc(-c3ccccc3)c(F)c1)C2	active: 16.4 µM	–
CCN(CC)C(=O)c1ccc(NC(=O)c2cn(-c3ccccc3)nc2-c2ccc(OC)cc2)cc1	inconclusive: 5.17 µM [falling, partial curve, poor fit]	–
O=C(C(=O)N1CCc2ccccc2C1)c1cn(CC(=O)N2CCCCC2)c2ccccc12	inconclusive: 14.6 µM [falling, partial curve, poor fit]	–
COc1ccccc1C1Nc2ccccc2-n2c(-c3ccccc3)c3c(=O)n(C)c(=O)n(C)c3c21 (centres undefined)	inconclusive: 18.4 µM [falling, single point]	–
c1ccc(C2c3ccccc3-n3nncc3CN2CC2CCCCC2)cc1 (centres undefined)	inconclusive: 32.6 µM [falling, partial curve, poor fit]	–
S=C=Nc1ccccn1	inconclusive: 32.6 µM [activator, single point]	–
COC(=O)C1=C(c2cc3ccccc3s2)C[C@@H]2CC[C@H]1N2C(=O)NC1CCCCC1	inconclusive: 18.4 µM [falling, single point]	–

SMILES	Potency	activity change, negative = inhibition
COc1ccccc1-n1c(-c2ccc(C)cc2)nc2ccccc2c1=O	inconclusive: 29.1 µM [activator, partial curve, poor fit]	–
CC(C)CC(NC(=O)CCCNC(=O)CCC(=O)OC1O[C@H]2OC3(C)CC[C@H]4[C@H](C)CCC(C1C)C24OO3)C(=O)O (some centres undefined)	inconclusive: 4.11 µM [falling, full curve]	–
COc1ccccc1N1CCN(C2CCCN(C(=O)COc3ccccc3Cl)C2)CC1 (centres undefined)	inconclusive: 23.1 µM [falling, partial curve]	–
c1nnn(C23CC4CC(CC(C4)C2)C3)n1	inconclusive: 2.59 µM [activator, partial curve]	–
CCOc1ccc(-n2c(O)c(C=Nc3ccc(N(CC)CC)cc3)c(=O)[nH]c2=O)cc1	inconclusive: 0.0326 µM [falling, full curve, poor fit]	–
Cc1cc(NC(=O)CSc2nc3c(c(=O)n2-c2ccc(Cl)cc2)SCC3)no1	inconclusive: 7.31 µM [falling, partial curve]	–
COC(=O)C1=C(c2ccc(F)cc2OCc2ccccc2)C[C@@H]2CC[C@H]1N2C(=O)NCc1ccccc1	active: 16.4 µM	–
Cc1cccn2c(=O)c3c(nc12)N1CCc2ccccc2C1C1(C3)C(=O)NC(=O)N(C)C1=O (centres undefined)	inconclusive: 2.31 µM [falling, full curve, poor fit]	–
Cc1cc(N2CCCCC2)nc2ccc(NC(=O)CCC(=O)N3CCN(c4cccc(Cl)c4)CC3)cc12	inconclusive: 14.6 µM [falling, single point]	–
COc1ccc(Nc2nc(N)nc(CSc3nc4ccccc4s3)n2)cc1	active: 20.6 µM	–
COc1ccccc1N1C(=O)NC(=O)/C(=C/c2ccc3c4c(cccc24)CC3)C1=O	–	inactive: 8.79%
COc1c2c(cc3c1OCO3)CC[N+](C)=C2	inconclusive: 6.51 µM [falling, partial curve, poor fit]	–
O=C(c1cc(F)ccc1F)C1CCCN(Cc2cc(Cl)ccc2O)C1 (centres undefined)	–	inactive: 1.94%
O=[N+]([O-])c1ccc(N2CCOCC2)c2cccnc12	inconclusive: 0.103 µM [falling, full curve, poor fit]	–
CCn1c(=O)oc2cc(NC(=O)CCl)ccc21	inconclusive: 25.9 µM [falling, single point]	–
CCCNC(=O)N1[C@H]2CC[C@@H]1C(C(=O)OC)=C(c1ccc(OC)c(OC)c1)C2	–	inactive: -7.34%
O=C(Nc1ccc2nc(SCC(=O)N3CCCc4ccccc43)sc2c1)c1cccc(F)c1	inconclusive: 25.9 µM [falling, partial curve, poor fit]	–
CN1CCc2c([nH]c3ccccc23)C1	–	inactive: -5.99%
CN(C[C@H](Cc1ccccc1)N(C[C@H](Cc1ccccc1)N(CCC(C)(C)C)N=O)N=O)N=O	inconclusive: 16.4 µM [falling, partial curve, poor fit]	–
COc1ccc(-n2c(O)c(/C=C3\C=Nc4ccccc43)c(=O)[nH]c2=O)cc1	inconclusive: 5.8 µM [activator, partial curve, poor fit]	–
CC(=O)NC(Cc1ccc(N(CCCl)CCCl)cc1)C(=O)NCC(=O)NCC(=O)O (centres undefined)	–	inactive: 16.1%
O=[N+]([O-])c1ccc(C2[C@H]3C(c4ccccc4)=NC4(CCCCC4)N23)cc1 (some centres undefined)	inconclusive: 25.9 µM [falling, partial curve, poor fit]	–

Exported with bars between the fields: part of the list above
SMILES | Potency | activity change, negative = inhibition
CCCNC(=O)N1[C@H]2CC[C@@H]1C(C(=O)OC)=C(c1ccc(OC)c(OC)c1)C2 | – | inactive: -7.34%
O=C(Nc1ccc2nc(SCC(=O)N3CCCc4ccccc43)sc2c1)c1cccc(F)c1 | inconclusive: 25.9 µM [falling, partial curve, poor fit] | –
CN1CCc2c([nH]c3ccccc23)C1 | – | inactive: -5.99%
CN(C[C@H](Cc1ccccc1)N(C[C@H](Cc1ccccc1)N(CCC(C)(C)C)N=O)N=O)N=O | inconclusive: 16.4 µM [falling, partial curve, poor fit] | –

Next part

SMILES	Potency	activity change, negative = inhibition
C[C@]12CC[C@H](N)CC1=CCC1C2CC[C@@]2(C)C1CC[C@@H]2O (some centres undefined)	inconclusive: 7.31 µM [activator, partial curve, poor fit]	–
C=C1C(C)C2C(Cc3ccccc3)NC(=O)C23OC(=O)/C=C/C(O)CCCC(C)C/C=C/C3C1O (centres undefined)	inconclusive: 1.3 µM [falling, full curve, poor fit]	–
O=C(Cc1coc2cc3c(cc12)CCC3)OCC(=O)N1CCCC1=O	inconclusive: 23.1 µM [falling, partial curve, poor fit]	–
Cc1ccc(-c2cc(-c3ccc(C)cc3)[n+](-c3ccc(C(=O)[O-])cc3)c(-c3ccc(C)cc3)c2)cc1	–	inactive: 21.1%
CN(C)c1ccc(/C=C/C=C/c2sc3ccccc3[n+]2C)cc1	inconclusive: 29.1 µM [falling, single point]	–
COc1cccc(NP(=O)(Oc2ccc(Cl)cc2)Oc2ccc(Cl)cc2)c1	inconclusive: 29.1 µM [falling, single point]	–
O=C(NCCO)c1nsnc1NCCCl	–	inactive: 6.25%
CCNC(=O)[C@H]1O[C@@H](n2cnc3c(N)ncnc32)[C@H](O)[C@@H]1O	–	inactive: 16.9%
COc1ccc(/C=C2\C(=O)NC(=S)N(C)C2=O)cc1C	inconclusive: 4.11 µM [falling, full curve, poor fit]	–
COc1ccc(N2C(=O)NC(=O)/C(=C/c3cccc(OC(=O)c4cccs4)c3)C2=O)cc1Cl	–	inactive: 7.9%
CCOc1ccc(-c2cc(C)[n+](CCN(CC)CC)c(-c3ccc(OCC)cc3)c2)cc1	inconclusive: 3.26 µM [falling, full curve, poor fit]	–
O=C(Nc1cccc(Cl)c1)c1c(O)c2c(n(Cc3ccco3)c1=O)CCCC2	inconclusive: 18.4 µM [activator, single point]	–
c1ccc(CNc2c3c(nc4ccccc24)CCC3)cc1	–	inactive: -1.88%
CC1=CC(O)C(O)C2(C)C1CC1OC(=O)C(O)C3C(C)C(O)C4(O)OCC13C42 (centres undefined)	active: 2.91 µM	–
FC(F)(F)c1ccc2c(c1)ncn2C1CCN(Cc2nnnn2C2CCCCC2)CC1	inconclusive: 16.4 µM [falling, single point]	–
Cc1ccc(O)c(C(=O)c2cc(C(=O)NCCC(C)C)c(=O)n(CCC(C)C)c2)c1	inconclusive: 16.4 µM [falling, single point]	–
O=C(NN1C(=O)C2C3C=CC(C4CC34)C2C1=O)c1ccc(Br)cc1 (centres undefined)	inconclusive: 20.6 µM [falling, partial curve, poor fit]	–
O=[N+]([O-])c1ccc(N2CCCC2)c2ncccc12	–	inactive: -8.72%
COC(=O)C1=C(c2ccc(OC(F)(F)F)cc2)C[C@@H]2CC[C@H]1N2C(=O)NCc1cc(C)oc1C(F)(F)F	inconclusive: 20.6 µM [falling, partial curve, poor fit]	–
COC(=O)C1=C(c2ccc(-c3ccccc3)c(F)c2)C[C@@H]2CC[C@H]1N2C(=O)N1CCOCC1	inconclusive: 23.1 µM [falling, partial curve, poor fit]	–
